The values that follow come from PubChem BioAssay AID504706 (National Center for Advancing Translational Sciences (NCATS), 2011).

Among all 320,000 compounds or so, about 200 (0.062%) were called active. Another 6% or so got no clear call; they are omitted. The call rests on the fitted dose curve; in most records, active means well fitted activation curve with a large enough effect; inconclusive means small, poorly fitted or top-dose-only effect; inactive means no such curve, though single readings can be large or run the other way. Only a part is listed here, and it is no random draw. Entries without a call were filed so in the source.
Potency means the concentration at half of the fitted maximal effect.

The nature of this test: qHTS assay for re-activators of p53 using a Luc reporter. Further: nearly all actives have a fitted effect of over 45% in size. On activity change, positive = activation: % of control where 0% means no effect. Particulars: H1299 p53-A138V BP100-luciferase reporter, luminescence, 24 h; activity change, positive = activation: at 92.2 µM (top of the series). The method, boiled down:
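H1299 (p53-null), stable ts p53-A138V + BP100-Luc; 1000 cells/well, Opti-MEM/10% FBS; cpd 4 pt, 1:5; 24 h, 37 deg C, 5% CO2; detection reagent 10 min RT; luminescence.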
On the technique in general: qHTS replaces the single test concentration by a dilution series.
In the case of `CCC(=O)OCCNc1cc(Sc2nccn2C)c2nonc2c1[N+](=O)[O-]`, the “activity change, positive = activation” value is inactive: -39.6%.
For `Cc1ccc(OCc2cc(C(=O)N3CC4C[C@@H]5CC3C[C@H](C4)C5)no2)cc1C`, the Potency was active: 28.2 µM.
Consider `COc1cc(/C=C(\C#N)C(=O)Nc2cccc(C(=O)O)c2)ccc1OCc1ccc(Cl)cc1`, for which the activity change, positive = activation was determined as 38.9%.
Still for that read-out and setting: the figure for `COc1ccc(N=CC2=C(O)c3ccccc3C2=O)cc1` is 27.2%; for `Cc1csc(NC(=O)c2ccc(C)c([N+](=O)[O-])c2)n1` it is 43.1%; for `Cc1ccc(C2=NN3C(C2)c2ccccc2OC32C(=O)Nc3ccccc32)cc1` (stereo not drawn) it is 57.2%.
As to `O=C(c1cccs1)N1CCc2ccccc21`, the activity change, positive = activation came out at 34.5%.
In the case of `CCN(Cc1ccccc1)C(=O)CN1C(=S)NC(C)(C)CC1C` (stereo not drawn), the activity change, positive = activation worked out at 36%.
The same measure, in the same setting: the figure for `O=C(O)c1cc(N/N=C/c2ccc3c(c2)OCCO3)ccc1Cl` is 42.2%; for `Cc1ccc(-c2cc(C(=O)N3CCCC3)no2)cc1` it is -22.1%.
`COCCn1c(C)cc(C(=O)CSc2nc3ccccc3s2)c1C`: the activity change, positive = activation was 63.5%.
Same read-out and setting: the figure for `O=C(O)c1cccc(-c2nnn(Cc3ccccc3Cl)n2)c1` is 25.3%.
Regarding `c1ccc(-c2oc3ncnc(NCCCn4ccnc4)c3c2-c2ccccc2)cc1`, the “activity change, positive = activation” value is inactive: -33%.
On the same count and under the same terms, next, `COc1ccccc1NC(CC(=O)c1ccccc1)C(=O)OCC(=O)c1ccc(C)c(C)c1` (stereo not drawn): 28.2%; `COc1ccc(-n2nnnc2-c2nc3ccccc3s2)cc1`: 60.9%; `O=C(CSc1cccc[n+]1[O-])Nc1cc(S(=O)(=O)N2CCOCC2)ccc1N1CCOCC1`: 55.5%.
The same measure, in the same setting: next, `CN(Cc1ccccc1)C(=O)CNC(=O)Cn1cnc2ccccc2c1=O`: -23.7%.
On the same count and under the same terms, the figure for `O=[N+]([O-])c1ccc(/C=N/Nc2ccc3ccccc3c2)o1` is 42.3%.
As to `Cc1nnc(SCC(=O)N2CCCCC2)s1`, the activity change, positive = activation was found to be 46.3%.
On the same count and under the same terms, next, `COc1cc(S(=O)(=O)N2CCN=C2c2ccccc2)ccc1F`: inactive: -14.3%.
On the same count and under the same terms, next, `Cc1ccc(S(=O)(=O)N2CCOCC2)cc1C(=O)OCC(=O)NC1CCS(=O)(=O)C1` (stereo not drawn): 23.1%; `Cc1ccc2cc3c(N)c(C(=O)N4CCOCC4)sc3nc2c1`: 43.1%; `CCOc1ncccc1C(=O)OCC(=O)Nc1ccc(-c2nc3ccc(C)cc3s2)cc1`: 69.3%.
The same measure, in the same setting: the figure for `COc1ccc(/C=C2/SC(=S)NC2=O)cc1OCc1ccccc1` is inactive: -46.6%; for `COc1ccc(S(=O)(=O)N2CCCCC2)cc1NC(=O)[C@@H]1CCCN1C(=O)c1cccs1` it is 29.7%; for `Cc1cs/c(=N/C(=S)Nc2ccccc2)n1C` it is 77.3%.
Take `Cc1cc(C)c2c(-n3cccc3)c(C(=O)O)sc2n1`: the activity change, positive = activation amounted to 43.9%.
Regarding `COc1ccc(NC(=O)c2ccccc2)cc1`, the activity change, positive = activation amounted to 88.2%.
Still for that read-out and setting: next, `Cc1c(C)c2cccnc2c2ncccc12`: inactive: -33.1%.
As for `Cc1ccc(-c2nnn(C(C)C(=O)N3c4ccccc4CCc4ccccc43)n2)cc1` (stereo not drawn), the activity change, positive = activation came out at 93.2%.
Still for that read-out and setting: the figure for `COCCCNc1oc(/C=C/c2ccccc2)nc1C#N` is 38.4%; for `NC(=O)c1ccccc1N/C=C/C(=O)c1ccccc1` it is 41.9%; for `CCOC(=O)c1cc(-c2ccccc2)sc1NC(=O)CC` it is 65.6%.
For `Cc1ccc(C(=O)Nc2ncc(C)s2)s1`, the activity change, positive = activation amounted to 32%.
The same measure, in the same setting: the figure for `O=C(Nc1ccc(-c2nc3cccnc3s2)cc1)C1CCCO1` (stereo not drawn) is 30.7%.
Same read-out and setting: the figure for `CCC(C)Nc1ccc(NC(C)CC)cc1` (stereo not drawn) is inactive: -35.6%; for `O=C(/C=C/Nc1ccccc1)c1ccc(Cl)cc1Cl` it is 35.5%.
Same read-out and setting: the figure for `COc1ccc(-c2ccc3c(c2)S(=O)(=O)c2cccc(C(=O)O)c2C3=O)cc1OC` is inactive: -11.7%; for `O=C(Nc1ccc2nsnc2c1)c1ccc2c(c1)OCO2` it is 45.2%; for `COc1ccc(C(=O)C(CN2CCCC2)c2ccccc2)cc1` (stereo not drawn) it is inactive: -29.3%.
Take `Cc1cccc(-n2ncc3c(N(CCO)CCO)ncnc32)c1`: the activity change, positive = activation was determined as 55.8%.
Still for that read-out and setting: the figure for `Cc1cccc(N2CCN(S(=O)(=O)c3ccc4c(c3)CCC(=O)N4)CC2C)c1` (stereo not drawn) is 52%.
As for `O=S(=O)(Nc1cc(Sc2cccc3cccnc23)c(O)c2ccccc12)c1ccc(F)cc1`, the “activity change, positive = activation” value is inactive: -38.4%.
Still for that read-out and setting: the figure for `CCCCC1(Cc2cccc([N+](=O)[O-])c2)C(=O)N(c2ccccc2)N(c2ccccc2)C1=O` is inactive: 1.64%.
On the same count and under the same terms, the figure for `COCCCN(C(=O)c1ccco1)c1nc(-c2ccc(OC)cc2)cs1` is inactive: -66.8%; for `CCCCc1ccc(NC(=O)C2CCCO2)cc1` (stereo not drawn) it is 38.2%.
As to `O=C(N/N=C/C1CC=CCC1)c1ccc(Cl)cc1O` (stereo not drawn), the Potency is active: 31.6 µM.
As to `COC(=O)c1c(C)n(-c2ccc(OC)cc2)c2ccc(O)cc12`, the “activity change, positive = activation” value is inactive: -34.1%.
On the same count and under the same terms, the figure for `CCOc1ccc(-c2nnc(SCC(=O)Nc3ccc4c(c3)c3ccccc3n4CC)n2N)cc1` is inactive: -46.1%; for `C/C(=N/N=C/c1ccc(N(C)C)cc1)c1ccccc1` it is 96.9%.
Still for that read-out and setting: next, `Cc1cc(C(=O)CN2C(=O)c3ccccc3S2(=O)=O)c(C)n1CC1CCCO1` (stereo not drawn): inactive: -59.7%; `CC1CCc2sc(C(=O)NC3CCCCC3)cc2C1` (stereo not drawn): 59.9%.
The same measure, in the same setting: the figure for `O=C(COC(=O)c1ccc(F)cc1)NC1CC1` is 42.3%; for `O=C(CCCN1C(=O)/C(=C\c2cccc(Br)c2)SC1=S)Nc1cccnc1` it is inactive: -2.05%; for `O=C(Cn1ncc(Cl)c(Cl)c1=O)NCC1CCCCC1` it is inactive: -34.2%.
On to `O=C(O)c1cccc(N/N=C/c2ccc(OC(F)(F)F)cc2)c1`, for which the activity change, positive = activation amounted to 20%.
Take `Cc1ccc(/C=C2\SC(=S)N(CCCC(=O)Nc3cccnc3)C2=O)cc1`: the “activity change, positive = activation” value was inactive: -31.1%.
Same read-out and setting: the figure for `CC(=O)Oc1ccc(C(=O)Nc2cc(C)on2)cc1` is 57%.
As to `CN(C)c1ccc(-c2noc(-c3ccccc3O)n2)cc1`, the Potency was active: 7.08 µM.
As to `O=C(CCS(=O)(=O)c1ccccc1)Nc1ccc(-c2nc3ccccc3s2)cc1`, the activity change, positive = activation was 159%.
On the same count and under the same terms, the figure for `O=C(Cn1ccc2ccccc2c1=O)NCCC(=O)NC1CCN(Cc2ccccc2)CC1` is 22.6%.
Same read-out and setting: next, `O=C(/C=C/Nc1ccccc1F)c1cccs1`: 76.6%; `Cc1ccc2c(c1)sc(-c1ccc(N(C)C)cc1)[n+]2C`: 60%; `COc1ccc2nc(SCc3ccccc3)nc(C)c2c1`: 119%.
With `CC(C)c1ccc(OCc2cccc(C(=O)N/N=C/c3cccnc3)c2)cc1`, the activity change, positive = activation was determined as 86.8%.
With `O=C(NCCc1ccccc1)c1ccc2c(c1)OCCO2`, the “activity change, positive = activation” value is inactive: -61.7%.
The same measure, in the same setting: the figure for `NC(=O)c1ccccc1NC(=O)c1ccc2ccccc2c1` is 61.8%; for `Cc1cc(=O)oc(C)c1C(=O)NCc1c(F)cc(F)cc1F` it is 53.7%.
With `CC(=O)Nc1cc(C(=O)OCC(=O)c2ccc(C)cc2)ccc1C`, the Potency was active: 28.2 µM.
Take `CCS(=O)(=O)c1ncc(Cl)c(C(=O)Nc2ccc(S(=O)(=O)N3CCCC(C)C3)cc2)n1` (stereo not drawn): the “activity change, positive = activation” value is inactive: -30.7%.
The same measure, in the same setting: next, `Cc1cc(C2=NNC(=NC3CC3)SC2)c(C)n1-c1ccccc1`: inactive: -26.5%; `CC(=O)Nc1ccc(C(=O)CCl)cc1`: inactive: -32.4%.
Same read-out and setting: the figure for `COc1cccc(N2CCN(c3ccc4nnc(CCC(=O)Nc5ccccn5)n4n3)CC2)c1` is 34.5%.
